# According to the supplement of paper PMC12067093, “Discovery and optimisation of a covalent ligand for TRIM25 and its application to targeted protein ubiquitination” (Chemical Science, 2025):
# Chains of the proteins cited; added tags and fusions are not shown. Lines headed by an entry give the natural chain unless they say otherwise; changes in a name come on top.
# UniProt P54922: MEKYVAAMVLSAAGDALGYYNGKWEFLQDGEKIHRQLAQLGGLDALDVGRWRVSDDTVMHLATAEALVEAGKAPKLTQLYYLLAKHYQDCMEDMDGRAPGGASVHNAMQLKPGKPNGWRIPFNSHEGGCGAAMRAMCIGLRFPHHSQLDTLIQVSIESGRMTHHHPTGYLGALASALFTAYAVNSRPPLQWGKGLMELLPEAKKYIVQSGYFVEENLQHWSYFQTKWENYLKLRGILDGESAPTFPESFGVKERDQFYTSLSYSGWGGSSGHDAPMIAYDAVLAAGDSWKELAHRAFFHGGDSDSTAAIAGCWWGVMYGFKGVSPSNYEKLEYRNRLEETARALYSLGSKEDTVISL
# UniProt Q96CM8: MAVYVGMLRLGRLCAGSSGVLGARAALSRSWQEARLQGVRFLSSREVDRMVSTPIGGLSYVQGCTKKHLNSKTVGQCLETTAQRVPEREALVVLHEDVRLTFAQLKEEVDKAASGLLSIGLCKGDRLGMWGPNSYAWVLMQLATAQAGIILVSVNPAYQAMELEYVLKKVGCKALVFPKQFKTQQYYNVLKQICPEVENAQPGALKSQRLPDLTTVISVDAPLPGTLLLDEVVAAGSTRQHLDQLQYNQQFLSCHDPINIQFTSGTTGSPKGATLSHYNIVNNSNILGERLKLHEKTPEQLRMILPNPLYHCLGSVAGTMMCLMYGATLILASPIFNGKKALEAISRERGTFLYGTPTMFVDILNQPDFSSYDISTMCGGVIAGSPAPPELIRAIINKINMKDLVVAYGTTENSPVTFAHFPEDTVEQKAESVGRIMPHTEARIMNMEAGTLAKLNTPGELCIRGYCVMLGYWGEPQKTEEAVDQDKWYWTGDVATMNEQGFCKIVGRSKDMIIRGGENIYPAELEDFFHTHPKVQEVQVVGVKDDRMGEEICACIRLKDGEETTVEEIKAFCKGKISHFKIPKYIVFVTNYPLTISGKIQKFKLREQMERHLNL
# UniProt P52594: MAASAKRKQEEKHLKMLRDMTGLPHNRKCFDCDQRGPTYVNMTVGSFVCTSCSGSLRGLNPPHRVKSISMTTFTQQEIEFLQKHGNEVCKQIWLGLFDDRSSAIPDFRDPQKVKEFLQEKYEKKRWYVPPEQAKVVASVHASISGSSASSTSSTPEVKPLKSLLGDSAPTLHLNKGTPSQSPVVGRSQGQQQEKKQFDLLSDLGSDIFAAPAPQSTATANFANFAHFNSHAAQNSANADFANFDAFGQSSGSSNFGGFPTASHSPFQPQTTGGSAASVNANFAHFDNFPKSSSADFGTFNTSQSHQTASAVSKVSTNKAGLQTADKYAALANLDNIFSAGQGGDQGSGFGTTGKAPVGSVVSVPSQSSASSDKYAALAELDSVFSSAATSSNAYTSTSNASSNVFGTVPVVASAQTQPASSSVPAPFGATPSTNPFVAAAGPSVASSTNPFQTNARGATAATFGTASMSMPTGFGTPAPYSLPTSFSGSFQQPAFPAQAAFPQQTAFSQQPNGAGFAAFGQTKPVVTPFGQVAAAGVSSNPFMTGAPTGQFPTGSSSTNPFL
# UniProt P55265: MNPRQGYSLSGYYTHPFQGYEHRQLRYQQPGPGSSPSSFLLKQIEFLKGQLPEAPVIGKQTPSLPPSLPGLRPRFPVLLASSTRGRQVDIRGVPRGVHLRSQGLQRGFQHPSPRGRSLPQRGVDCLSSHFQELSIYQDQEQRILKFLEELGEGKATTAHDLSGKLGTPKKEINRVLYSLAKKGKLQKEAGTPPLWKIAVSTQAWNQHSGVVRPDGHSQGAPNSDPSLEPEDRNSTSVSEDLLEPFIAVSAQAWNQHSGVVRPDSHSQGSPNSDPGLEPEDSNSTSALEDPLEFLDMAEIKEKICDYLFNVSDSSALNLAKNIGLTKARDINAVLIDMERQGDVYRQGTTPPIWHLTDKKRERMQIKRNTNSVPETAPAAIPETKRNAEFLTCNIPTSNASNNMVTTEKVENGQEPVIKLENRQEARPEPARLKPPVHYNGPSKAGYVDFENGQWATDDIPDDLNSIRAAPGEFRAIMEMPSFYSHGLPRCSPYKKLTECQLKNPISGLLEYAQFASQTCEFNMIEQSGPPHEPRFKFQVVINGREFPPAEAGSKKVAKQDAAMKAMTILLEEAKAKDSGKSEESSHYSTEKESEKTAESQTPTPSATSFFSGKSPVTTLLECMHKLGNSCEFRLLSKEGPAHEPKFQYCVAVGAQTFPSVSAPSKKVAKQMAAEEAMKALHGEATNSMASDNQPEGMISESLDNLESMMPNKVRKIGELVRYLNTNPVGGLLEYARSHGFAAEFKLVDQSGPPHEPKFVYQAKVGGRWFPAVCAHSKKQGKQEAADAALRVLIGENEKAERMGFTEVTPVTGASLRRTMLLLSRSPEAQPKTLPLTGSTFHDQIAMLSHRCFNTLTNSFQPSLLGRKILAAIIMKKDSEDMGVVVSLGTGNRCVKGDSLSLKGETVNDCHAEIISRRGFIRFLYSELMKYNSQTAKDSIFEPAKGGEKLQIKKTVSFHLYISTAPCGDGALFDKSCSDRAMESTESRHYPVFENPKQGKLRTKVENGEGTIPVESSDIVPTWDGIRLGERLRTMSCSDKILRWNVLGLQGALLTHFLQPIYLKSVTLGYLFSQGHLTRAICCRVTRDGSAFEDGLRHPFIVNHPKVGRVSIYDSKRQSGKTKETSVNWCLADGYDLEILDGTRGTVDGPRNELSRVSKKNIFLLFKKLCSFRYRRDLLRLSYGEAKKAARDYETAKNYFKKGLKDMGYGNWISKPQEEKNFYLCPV
# UniProt P11766: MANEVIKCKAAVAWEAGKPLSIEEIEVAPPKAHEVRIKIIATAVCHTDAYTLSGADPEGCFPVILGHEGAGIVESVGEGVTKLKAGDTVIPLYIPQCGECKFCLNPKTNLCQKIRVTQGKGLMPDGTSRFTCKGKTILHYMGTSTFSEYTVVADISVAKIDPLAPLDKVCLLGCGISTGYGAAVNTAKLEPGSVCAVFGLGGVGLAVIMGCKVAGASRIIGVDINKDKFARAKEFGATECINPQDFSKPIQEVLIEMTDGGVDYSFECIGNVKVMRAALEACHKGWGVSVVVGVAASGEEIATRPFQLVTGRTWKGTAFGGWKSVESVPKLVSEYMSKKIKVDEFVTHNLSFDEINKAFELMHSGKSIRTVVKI
# UniProt Q96A54: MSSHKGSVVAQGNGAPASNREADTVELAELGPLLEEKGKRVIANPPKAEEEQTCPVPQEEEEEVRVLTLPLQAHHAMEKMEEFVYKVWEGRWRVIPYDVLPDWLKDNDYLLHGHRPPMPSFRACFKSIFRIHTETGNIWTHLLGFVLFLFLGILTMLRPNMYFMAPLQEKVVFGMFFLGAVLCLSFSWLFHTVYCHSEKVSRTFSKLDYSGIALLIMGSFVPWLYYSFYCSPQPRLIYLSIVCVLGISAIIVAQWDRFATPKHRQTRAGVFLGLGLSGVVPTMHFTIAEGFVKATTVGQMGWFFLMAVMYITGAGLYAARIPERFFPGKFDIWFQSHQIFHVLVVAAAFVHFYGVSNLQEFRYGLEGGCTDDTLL
# UniProt Q16186: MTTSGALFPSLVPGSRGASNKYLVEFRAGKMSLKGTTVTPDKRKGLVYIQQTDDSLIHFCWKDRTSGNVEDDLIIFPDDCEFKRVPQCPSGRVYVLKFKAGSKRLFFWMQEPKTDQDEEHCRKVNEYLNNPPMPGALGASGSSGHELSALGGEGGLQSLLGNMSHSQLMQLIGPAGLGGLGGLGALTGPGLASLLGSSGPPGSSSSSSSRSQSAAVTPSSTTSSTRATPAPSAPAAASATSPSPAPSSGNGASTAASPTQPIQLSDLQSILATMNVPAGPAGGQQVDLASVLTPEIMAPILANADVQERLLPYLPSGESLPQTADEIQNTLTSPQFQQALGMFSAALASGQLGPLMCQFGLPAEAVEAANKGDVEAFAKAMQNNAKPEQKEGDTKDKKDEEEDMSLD
# UniProt Q9NZ32, whole entry, looked up: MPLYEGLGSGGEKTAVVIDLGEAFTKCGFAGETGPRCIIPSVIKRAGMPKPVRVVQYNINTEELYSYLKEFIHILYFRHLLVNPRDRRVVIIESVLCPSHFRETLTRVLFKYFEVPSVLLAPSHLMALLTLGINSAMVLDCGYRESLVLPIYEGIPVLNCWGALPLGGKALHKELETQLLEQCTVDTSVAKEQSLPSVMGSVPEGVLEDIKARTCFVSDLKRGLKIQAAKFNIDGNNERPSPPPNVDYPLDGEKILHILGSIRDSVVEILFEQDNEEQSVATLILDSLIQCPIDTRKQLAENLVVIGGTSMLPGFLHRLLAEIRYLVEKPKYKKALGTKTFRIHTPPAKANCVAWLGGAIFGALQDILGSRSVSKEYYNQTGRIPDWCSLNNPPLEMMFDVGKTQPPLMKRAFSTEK
# UniProt O43707, whole entry, looked up: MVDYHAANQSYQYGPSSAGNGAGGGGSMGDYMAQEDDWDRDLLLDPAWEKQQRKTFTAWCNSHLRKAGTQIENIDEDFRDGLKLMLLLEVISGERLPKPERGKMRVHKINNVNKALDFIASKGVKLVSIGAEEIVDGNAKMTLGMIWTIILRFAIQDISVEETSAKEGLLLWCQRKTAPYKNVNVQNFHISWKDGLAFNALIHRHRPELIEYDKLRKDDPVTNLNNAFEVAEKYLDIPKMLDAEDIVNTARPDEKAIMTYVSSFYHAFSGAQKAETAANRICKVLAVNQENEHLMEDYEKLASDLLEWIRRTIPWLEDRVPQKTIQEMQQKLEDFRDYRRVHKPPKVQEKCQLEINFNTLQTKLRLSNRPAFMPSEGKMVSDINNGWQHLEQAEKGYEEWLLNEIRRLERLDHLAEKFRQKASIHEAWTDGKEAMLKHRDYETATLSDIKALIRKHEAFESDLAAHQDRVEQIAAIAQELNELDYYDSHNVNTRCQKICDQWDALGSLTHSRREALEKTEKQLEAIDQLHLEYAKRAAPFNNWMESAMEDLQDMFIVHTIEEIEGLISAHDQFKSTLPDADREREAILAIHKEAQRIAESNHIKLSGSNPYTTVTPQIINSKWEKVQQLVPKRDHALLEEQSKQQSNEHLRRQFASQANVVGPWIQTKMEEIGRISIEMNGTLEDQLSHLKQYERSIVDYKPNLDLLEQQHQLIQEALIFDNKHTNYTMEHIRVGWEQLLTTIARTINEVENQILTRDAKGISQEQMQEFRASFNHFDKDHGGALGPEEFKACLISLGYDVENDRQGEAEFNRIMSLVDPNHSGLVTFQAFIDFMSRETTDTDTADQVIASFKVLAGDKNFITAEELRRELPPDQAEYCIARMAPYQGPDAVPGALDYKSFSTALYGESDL
# UniProt Q53H12: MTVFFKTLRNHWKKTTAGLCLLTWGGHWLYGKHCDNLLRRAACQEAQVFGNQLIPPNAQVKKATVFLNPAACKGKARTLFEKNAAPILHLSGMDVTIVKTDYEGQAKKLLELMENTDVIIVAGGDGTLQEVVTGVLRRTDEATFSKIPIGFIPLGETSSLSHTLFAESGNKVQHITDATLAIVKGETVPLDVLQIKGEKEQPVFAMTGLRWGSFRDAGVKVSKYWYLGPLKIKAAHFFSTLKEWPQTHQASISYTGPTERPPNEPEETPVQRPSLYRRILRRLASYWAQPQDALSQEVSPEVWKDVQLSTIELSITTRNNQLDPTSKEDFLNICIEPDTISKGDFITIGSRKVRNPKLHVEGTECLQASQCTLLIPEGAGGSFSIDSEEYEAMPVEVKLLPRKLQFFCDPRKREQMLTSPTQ
# The list shows a part of the results.
# Compound: CC1Cc2ccccc2N1C(=O)C1CCCN(C1)C(=O)CCl (mixture of isomers) [TRIM25 ligand 11 (diastereomer mixture)]
# Assay: probe-labelled cysteine peptide fold change vs DMSO (competition) (log2 fold change); higher = less target engagement (more negative = stronger competition)
# Conditions: THP-1, incubation time: 4 h
# 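Note: competitive chemoproteomic profiling in live THP-1 cells with an iodoacetamide desthiobiotin (IA-DTB) probe, comparing probe-labelled peptide intensities in compound-treated cells against DMSO-treated controls.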
Target,probe-labelled cysteine peptide fold change (10 µM),probe-labelled cysteine peptide fold change (50 µM)
ADPRH_P54922_129_IPFNSHEGGCGAAMR (UniProt P54922),0.14,0.126
ACSF2_Q96CM8_77_TVGQCLETTAQR (UniProt Q96CM8),0.00395,-0.106
ACTR2_P61160_20_CGYAGSNFPEHIFPALVGR (UniProt P61160),0.0563,0.0215
ACTB_P60709_17_DDDIAALVVDNGSGMCK (UniProt P60709),-0.0879,-0.264
AGFG1_P52594_32_CFDCDQR (UniProt P52594),0.119,0.231
ADAR_P55265_649_FQYCVAVGAQTFPSVSAPSK (UniProt P55265),0.0711,-0.146
ADGRA2_Q96PE1_196_VVDLGTEFLTCDCHLR (UniProt Q96PE1),0.18,0.0792
ADH5_P11766_170+174_VCLLGCGISTGYGAAVNTAK (UniProt P11766),0.222,0.114
ADIPOR1_Q96A54_54_AEEEQTCPVPQEEEEEVR (UniProt Q96A54),0.147,-0.188
ADRM1_Q16186_80_TSGNVEDDLIIFPDDCEFK (UniProt Q16186),0.0252,0.000474
ACTR10_Q9NZ32_27_CGFAGETGPR (UniProt Q9NZ32),-0.0493,0.118
ACTR2_P61160_221_LCYVGYNIEQEQK (UniProt P61160),0.19,0.0318
ACTN4_O43707_879_RELPPDQAEYCIAR (UniProt O43707),0.0491,0.0892
AGK_Q53H12_34_HCDNLLR (UniProt Q53H12),-0.0547,0.0473

# Given with bars between the fields: part of the list above.
Target | probe-labelled cysteine peptide fold change (10 µM) | probe-labelled cysteine peptide fold change (50 µM)
ADRM1_Q16186_80_TSGNVEDDLIIFPDDCEFK (UniProt Q16186) | 0.0252 | 0.000474
ACTR10_Q9NZ32_27_CGFAGETGPR (UniProt Q9NZ32) | -0.0493 | 0.118
